PubChem BioAssay AID652259 – Drosophila RNAi Screening Center | 2013
In all, the deposit lists about 22,000 reagents; shown is an unselected part of those with a known target gene and a result. Over the whole deposit, 233 (1.1%) got an active call. 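Light values are raw, unnormalised plate reads; the ratio scores behind the reporter calls were not deposited.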 Entries without a mark were called inactive. Reagents against one gene are numbered here. Names joined by + are all predicted targets of the reagent. The record does not give: the amount of reagent, the time to read-out, the dose of the treatment.

Purpose: 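Identify new Wingless signalling regulators in fly cells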 (primary screen)
System: Drosophila clone 8 imaginal disc epithelial cells
Knock-down reagent: long dsRNA against Drosophila genes
Challenge: pathway stimulated by co-transfected Wingless expression plasmid
Measured: 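Dual luciferase reads per well after Wingless plasmid stimulation: reporter firefly light and Renilla control light; activity is firefly divided by Renilla, a ratio not deposited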
Reading the numbers: firefly reporter light: higher = more Wg reporter light, before normalisation; Renilla control light: higher = more transfected or surviving cells
Call rule: 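Strong candidates differ from their plate mean by at least two out of four per-plate statistical tests; weak candidates meet just one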
Meaning of the calls: active = candidate regulator (raises or lowers reporter); inactive = not a candidate

no.	predicted target	reagent	reporter change call, replicate 1	firefly reporter light, replicate 1	firefly reporter light, replicate 2	Renilla control light, replicate 1	Renilla control light, replicate 2
1	CG12535	1		24825		20904	
2	side-V	1		5106	11320	1235	4352
3	side-V	2		4352		1104	
4	side-V	3		5.14e5	5.06e5	1.10e5	97002
5	CG5674	1	Wg reporter activity raised (active)	2620	6133	483	1237
6	Tengl2	1		8.37e5	7.98e5	3.52e5	3.78e5
7	Snap25	1		20760		1619	
8	CG15446	1		18354		9323	
9	Ctr9	1		15227		3320	
10	AIMP3	1		3601	7607	624	2604
11	Jon25Bi	1		2301	6689	812	1778
12	Pka-R1	1		3987		1104	
13	Pka-R1	2		5613		1979	
14	CG46491	1		11910		4448	
15	CG46491	2		4744		2140	
16	CG15278	1		2865	9355	1248	3882
17	CG14356	1		15284		3336	
18	ppk9	1		2947	6601	1014	2657
19	ppk9	2		3645	8188	1136	2587
20	wol	1		9112		4848	
21	CG11413 + CG4622	1		3569	6583	836	2241
22	CG14631	1		24407		17515	
23	CG14631	2		13712		13051	
24	CG13016	1		7619		1581	
25	CG32187	1		7360		2521	

Entries above with an active call:
predicted target	reagent	reporter change call, replicate 1	firefly reporter light, replicate 1	firefly reporter light, replicate 2	Renilla control light, replicate 1	Renilla control light, replicate 2
CG5674	1	Wg reporter activity raised (active)	2620	6133	483	1237

The list goes on.
no.	predicted target	reagent	reporter change call, replicate 1	firefly reporter light, replicate 1	firefly reporter light, replicate 2	Renilla control light, replicate 1	Renilla control light, replicate 2
26	Teh3	1		5288		2642	
27	CG32192	1		2.96e5	2.91e5	1.45e5	91706
28	CG8003	1		4524		2248	
29	CG4793	1		2713	5451	842	2377
30	Drsl6	1		8131		3756	
31	CG16824	1		4272	9392	1082	3412
32	CG12607	1		1920	10824	1543	4693
33	CG12567	1		19024		12912	
34	cpx	1		3424		1428	
35	CG14017	1		1043	3698	579	2371
36	CG30431	1		13637		4057	
37	CG30431	2		3785	8358	1064	2525
38	Zip89B	1		12691		3548	
39	Dmtn	1		4267		1728	
40	CG46385	1		4096		419	
41	CG46385	2		2572	5268	988	2352
42	CG43777 + CG43776 + CG43775	1		2497	5050	417	2252
43	GstE8	1		21282		5826	
44	Atg14	1		2293	4651	806	2064
45	Sp212	1		5.04e5	4.86e5	1.77e5	1.74e5
46	CG13847	1	Wg reporter activity raised (active)	3752	8134	476	653
47	spaw	1		2215	6160	433	1765
48	Scp1	1		21719		10738	
49	CG10505	1		3211	9924	738	3088
50	CG15784	1		13604		9562	
51	CG11384	1		19572		13379	
52	Trs20	1		7451		2256	
53	CG12546 + CG14452	1		18144		4004	
54	Syx5	1		11264		2550	
55	yin	1		4118	10133	1616	3453
56	yin	2		5.98e5	6.68e5	2.46e5	2.92e5
57	CG5756	1		4883		2240	
58	CG8087	1		13657		4203	
59	cype	1		2556	11920	829	3061
60	CG32107	1		2337		1216	
61	CG43234 (retired record)	1		18296		9258	
62	CG43101	1		19405		13965	
63	Prosalpha1R + Prosalpha1	1		7273		2451	
64	CG42240	1		1377	5600	464	2187
65	Obp58b	1		1953	8039	637	2760
66	PH4alphaSG2	1		3958		2297	
67	CecB	1		10803		4293	
68	CG4678	1		23298		11909	
69	CG4678	2		13485		8120	
70	CG3847	1		2813		1001	
71	CG3847	2		1624	4448	608	1719
72	RpS28b	1		2620	5225	579	1981
73	Mtk	1		9016		2672	
